The text below walks through data of PMC8298264, “Function of cofactor Akirin2 in the regulation of gene expression in model human neutrophil-like HL60 cells” (Bioscience Reports, 2021).

Sequences and labels used below:
B1: sp¦Q9BS26¦ERP44_HUMAN (protein, UniProt Q9BS26 30-406, looked up)
Endoplasmic reticulum …: EITSLDTENIDEILNNADVALVNFYADWCRFSQMLHPIFEEASDVIKEEFPNENQVVFARVDCDQHSDIAQRYRISKYPTLKLFRNGMMMKREYRGQRSVKALADYIRQQKSDPIQEIRDLAEITTLDRSKRNIIGYFEQKDSDNYRVFERVANILHDDCAFLSAFGDVSKPERYSGDNIIYKPPGHSAPDMVYLGAMTNFDVTYNWIQDKCVPLVREITFENGEELTEEGLPFLILFHMKEDTESLEIFQNEVARQLISEKGTINFLHADCDKFRHPLLHIQKTPADCPVIAIDSFRHMYVFGDFKDVLIPGKLKQFVFDLHSGKLHREFHHGPDPTDTAPGEQAQDVASSPPESSFQKLAPSEYRYTLLRDRDEL
B2: sp¦O43143¦DHX15_HUMAN (protein, UniProt O43143 1-795, looked up)
ATP-dependent RNA helicase …: MSKRHRLDLGEDYPSGKKRAGTDGKDRDRDRDREDRSKDRDRERDRGDREREREKEKEKELRASTNAMLISAGLPPLKASHSAHSTHSAHSTHSTHSAHSTHAGHAGHTSLPQCINPFTNLPHTPRYYDILKKRLQLPVWEYKDRFTDILVRHQSFVLVGETGSGKTTQIPQWCVEYMRSLPGPKRGVACTQPRRVAAMSVAQRVADEMDVMLGQEVGYSIRFEDCSSAKTILKYMTDGMLLREAMNDPLLERYGVIILDEAHERTLATDILMGVLKEVVRQRSDLKVIVMSATLDAGKFQIYFDNCPLLTIPGRTHPVEIFYTPEPERDYLEAAIRTVIQIHMCEEEEGDLLLFLTGQEEIDEACKRIKREVDDLGPEVGDIKIIPLYSTLPPQQQQRIFEPPPPKKQNGAIGRKVVVSTNIAETSLTIDGVVFVIDPGFAKQKVYNPRIRVESLLVTAISKASAQQRAGRAGRTRPGKCFRLYTEKAYKTEMQDNTYPEILRSNLGSVVLQLKKLGIDDLVHFDFMDPPAPETLMRALELLNYLAALNDDGDLTELGSMMAEFPLDPQLAKMVIASCDYNCSNEVLSITAMLSVPQCFVRPTEAKKAADEAKMRFAHIDGDHLTLLNVYHAFKQNHESVQWCYDNFINYRSLMSADNVRQQLSRIMDRFNLPRRSTDFTSRDYYINIRKALVTGYFMQVAHLERTGHYLTVKDNQVVQLHPSTVLDHKPEWVLYNEFVLTTKNYIRTCTDIKPEWLVKIAPQYYDMSNFPQCEAKRQLDRIIAKLQSKEYSQY
B3: sp¦P38117¦ETFB_HUMAN (protein, UniProt P38117 2-255, looked up)
Electron transfer …: AELRVLVAVKRVIDYAVKIRVKPDRTGVVTDGVKHSMNPFCEIAVEEAVRLKEKKLVKEVIAVSCGPAQCQETIRTALAMGADRGIHVEVPPAEAERLGPLQVARVLAKLAEKEKVDLVLLGKQAIDDDCNQTGQMTAGFLDWPQGTFASQVTLEGDKLKVEREIDGGLETLRLKLPAVVTADLRLNEPRYATLPNIMKAKKKKIEVIKPGDLGVDLTSKLSVISVEDPPQRTAGVKVETTEDLVAKLKEIGRI
B4: sp¦Q9Y5M8¦SRPRB_HUMAN (protein, UniProt Q9Y5M8 1-271, looked up)
Signal recognition particle …: MASADSRRVADGGGAGGTFQPYLDTLRQELQQTDPTLLSVVVAVLAVLLTLVFWKLIRSRRSSQRAVLLVGLCDSGKTLLFVRLLTGLYRDTQTSITDSCAVYRVNNNRGNSLTLIDLPGHESLRLQFLERFKSSARAIVFVVDSAAFQREVKDVAEFLYQVLIDSMGLKNTPSFLIACNKQDIAMAKSAKLIQQQLEKELNTLRVTRSAAPSTLDSSSTAPAQLGKKGKEFEFSQLPLKVEFLECSAKGGRGDVGSADIQDLEKWLAKIA
B5: sp¦Q14697¦GANAB_HUMAN (protein, UniProt Q14697 29-944, looked up)
Neutral alpha-glucosidase AB: ITLAVDRSNFKTCEESSFCKRQRSIRPGLSPYRALLDSLQLGPDSLTVHLIHEVTKVLLVLELQGLQKNMTRFRIDELEPRRPRYRVPDVLVADPPIARLSVSGRDENSVELTMAEGPYKIILTARPFRLDLLEDRSLLLSVNARGLLEFEHQRAPRVSQGSKDPAEGDGAQPEETPRDGDKPEETQGKAEKDEPGAWEETFKTHSDSKPYGPMSVGLDFSLPGMEHVYGIPEHADNLRLKVTEGGEPYRLYNLDVFQYELYNPMALYGSVPVLLAHNPHRDLGIFWLNAAETWVDISSNTAGKTLFGKMMDYLQGSGETPQTDVRWMSETGIIDVFLLLGPSISDVFRQYASLTGTQALPPLFSLGYHQSRWNYRDEADVLEVDQGFDDHNLPCDVIWLDIEHADGKRYFTWDPSRFPQPRTMLERLASKRRKLVAIVDPHIKVDSGYRVHEELRNLGLYVKTRDGSDYEGWCWPGSAGYPDFTNPTMRAWWANMFSYDNYEGSAPNLFVWNDMNEPSVFNGPEVTMLKDAQHYGGWEHRDVHNIYGLYVHMATADGLRQRSGGMERPFVLARAFFAGSQRFGAVWTGDNTAEWDHLKISIPMCLSLGLVGLSFCGADVGGFFKNPEPELLVRWYQMGAYQPFFRAHAHLDTGRREPWLLPSQHNDIIRDALGQRYSLLPFWYTLLYQAHREGIPVMRPLWVQYPQDVTTFNIDDQYLLGDALLVHPVSDSGAHGVQVYLPGQGEVWYDIQSYQKHHGPQTLYLPVTLSSIPVFQRGGTIVPRWMRVRRSSECMKDDPITLFVALSPQGTAQGELFLDDGHTFNYQTRQEFLLRRFSFSGNTLVSSSADPEGHFETPIWIERVVIIGAGKPAAVVLQTKGSPESRLSFQHDPETSVLVLRKPGINVASDWSIHLR
B6: sp¦Q9Y6C9¦MTCH2_HUMAN (protein, UniProt Q9Y6C9 2-303, looked up)
Mitochondrial carrier homolog …: ADAASQVLLGSGLTILSQPLMYVKVLIQVGYEPLPPTIGRNIFGRQVCQLPGLFSYAQHIASIDGRRGLFTGLTPRLCSGVLGTVVHGKVLQHYQESDKGEELGPGNVQKEVSSSFDHVIKETTREMIARSAATLITHPFHVITLRSMVQFIGRESKYCGLCDSIITIYREEGILGFFAGLVPRLLGDILSLWLCNSLAYLVNTYALDSGVSTMNEMKSYSQAVTGFFASMLTYPFVLVSNLMAVNNCGLAGGCPPYSPIYTSWIDCWCMLQKEGNMSRGNSLFFRKVPFGKTYCCDLKMLI
B7: sp¦Q9NZ45¦CISD1_HUMAN (protein, UniProt Q9NZ45 2-108, looked up)
CDGSH iron-sulfur …: SLTSSSSVRVEWIAAVTIAAGTAAIGYLAYKRFYVKDHRNKAMINLHIQKDNPKIVHAFDMEDLGDKAVYCRCWRSKKFPFCDGAHTKHNEETGDNVGPLIIKKKET
B8: sp¦Q8NCW5¦NNRE_HUMAN (protein, UniProt Q8NCW5 48-288, looked up)
NAD(P)H-hydrate epimerase: DSEVMASTVVKYLSQEEAQAVDQELFNEYQFSVDQLMELAGLSCATAIAKAYPPTSMSRSPPTVLVICGPGNNGGDGLVCARHLKLFGYEPTIYYPKRPNKPLFTALVTQCQKMDIPFLGEMPAEPMTIDELYELVVDAIFGFSFKGDVREPFHSILSVLKGLTVPIASIDIPSGWDVEKGNAGGIQPDLLISLTAPKKSATQFTGRYHYLGGRFVPPALEKKYQLNLPPYPDTECVYRLQ
B9: sp¦Q9BV20¦MTNA_HUMAN (protein, UniProt Q9BV20 1-369, looked up)
Methylthioribose-1-phosphate …: MTLEAIRYSRGSLQILDQLLLPKQSRYEAVGSVHQAWEAIRAMKVRGAPAIALVGCLSLAVELQAGAGGPGLAALVAFVRDKLSFLVTARPTAVNMARAARDLADVAAREAEREGATEEAVRERVICCTEDMLEKDLRDNRSIGDLGARHLLERVAPSGGKVTVLTHCNTGALATAGYGTALGVIRSLHSLGRLEHAFCTETRPYNQGARLTAFELVYEQIPATLITDSMVAAAMAHRGVSAVVVGADRVVANGDTANKVGTYQLAIVAKHHGIPFYVAAPSSSCDLRLETGKEIIIEERPGQELTDVNGVRIAAPGIGVWNPAFDVTPHDLITGGIITELGVFAPEELRTALTTTISSRDGTLDGPQM
B10: sp¦Q9UBT2¦SAE2_HUMAN (protein, UniProt Q9UBT2 1-640, looked up)
SUMO-activating enzyme …: MALSRGLPRELAEAVAGGRVLVVGAGGIGCELLKNLVLTGFSHIDLIDLDTIDVSNLNRQFLFQKKHVGRSKAQVAKESVLQFYPKANIVAYHDSIMNPDYNVEFFRQFILVMNALDNRAARNHVNRMCLAADVPLIESGTAGYLGQVTTIKKGVTECYECHPKPTQRTFPGCTIRNTPSEPIHCIVWAKYLFNQLFGEEDADQEVSPDRADPEAAWEPTEAEARARASNEDGDIKRISTKEWAKSTGYDPVKLFTKLFKDDIRYLLTMDKLWRKRKPPVPLDWAEVQSQGEETNASDQQNEPQLGLKDQQVLDVKSYARLFSKSIETLRVHLAEKGDGAELIWDKDDPSAMDFVTSAANLRMHIFSMNMKSRFDIKSMAGNIIPAIATTNAVIAGLIVLEGLKILSGKIDQCRTIFLNKQPNPRKKLLVPCALDPPNPNCYVCASKPEVTVRLNVHKVTVLTLQDKIVKEKFAMVAPDVQIEDGKGTILISSEEGETEANNHKKLSEFGIRNGSRLQADDFLQDYTLLINILHSEDLGKDVEFEVVGDAPEKVGPKQAEDAAKSITNGSDDGAQPSTSTAQEQDDVLIVDSDEEDSSNNADVSEEERSRKRKLDEKENLSAKRSRIEQKEELDDVIALD
B11: sp¦P30084¦ECHM_HUMAN (protein, UniProt P30084 28-290, looked up)
Enoyl-CoA hydratase, …: ASGANFEYIIAEKRGKNNTVGLIQLNRPKALNALCDGLIDELNQALKTFEEDPAVGAIVLTGGDKAFAAGADIKEMQNLSFQDCYSSKFLKHWDHLTQVKKPVIAAVNGYAFGGGCELAMMCDIIYAGEKAQFAQPEILIGTIPGAGGTQRLTRAVGKSLAMEMVLTGDRISAQDAKQAGLVSKICPVETLVEEAIQCAEKIASNSKIVVAMAKESVNAAFEMTLTEGSKLEKKLFYSTFATDDRKEGMTAFVEKRKANFKDQ

The data set relates to human HL60 cells. As to the kind of experiment: SWATH-MS proteomics, differential protein representation, akirin2 KO vs WT HL60 cells. Format: cell-based. As to conditions: akirin2 KO vs WT HL60 cells, SWATH-MS; sheet "Under-represented in KO". In outline:
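Read-out is label-free SWATH-MS protein area, globally normalized to total detected-protein area, with identifications held at 1% FDR against a library from information-dependent acquisition.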
For the molecule B1, the “Fold Change” value worked out at 0.8499 and the “Log (Fold Change)” value is -0.07066.

For the molecule B2, the “Fold Change” value is listed as 0.845 and the “Log (Fold Change)” value is -0.07313.

For B3, the “Fold Change” value stood at 0.8428 and the “Log (Fold Change)” value is given as -0.07428.

Turning to B4, the “Fold Change” value was determined as 0.8331 and the “Log (Fold Change)” value was -0.07932.

As for B5, the “Fold Change” value was 0.851 and the “Log (Fold Change)” value is given as -0.07007.

In the case of B6, the “Fold Change” value is 0.8427 and the “Log (Fold Change)” value is listed as -0.07434.

Regarding B7, the “Fold Change” value was 0.8402 and the “Log (Fold Change)” value is -0.07562.

Regarding B8, the “Fold Change” value is reported as 0.8398 and the “Log (Fold Change)” value was -0.07581.

On to B9, for which the “Fold Change” value amounted to 0.8301 and the “Log (Fold Change)” value is -0.08085.

With B10, the “Fold Change” value is given as 0.8354 and the “Log (Fold Change)” value is given as -0.07813.

As for B11, the “Fold Change” value turned out to be 0.8444 and the “Log (Fold Change)” value is -0.07343.
